From PMC8698322, “Autophagy Is Involved in the Viability of Overexpressing Thioredoxin o1 Tobacco BY-2 Cells under Oxidative Conditions” (Antioxidants, 2021)
Results are given in words; binding and its absence hold for the method and conditions named. Sequences can lack the tags named with a protein.

Sequences of proteins named here, by UniProt entry; tags and fusion partners are left off. Residues count along the entry.
UniProt P02769, residues 25-607: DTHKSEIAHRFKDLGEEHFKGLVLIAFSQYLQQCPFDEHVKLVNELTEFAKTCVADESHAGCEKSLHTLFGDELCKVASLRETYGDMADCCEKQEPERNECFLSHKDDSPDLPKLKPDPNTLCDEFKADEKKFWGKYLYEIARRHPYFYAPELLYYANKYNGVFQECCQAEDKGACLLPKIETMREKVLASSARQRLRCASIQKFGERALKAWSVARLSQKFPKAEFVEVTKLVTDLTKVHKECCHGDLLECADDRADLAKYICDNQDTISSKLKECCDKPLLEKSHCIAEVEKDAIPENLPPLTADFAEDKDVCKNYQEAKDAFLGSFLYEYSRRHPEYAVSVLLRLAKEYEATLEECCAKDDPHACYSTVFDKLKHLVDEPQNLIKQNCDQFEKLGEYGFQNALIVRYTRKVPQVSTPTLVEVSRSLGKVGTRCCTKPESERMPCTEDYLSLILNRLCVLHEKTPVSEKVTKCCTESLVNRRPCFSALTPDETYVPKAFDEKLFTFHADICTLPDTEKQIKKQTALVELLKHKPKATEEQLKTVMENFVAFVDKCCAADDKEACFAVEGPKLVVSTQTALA

Experiments:
[1] = target: recombinant human ATG4B, His-tagged (His-HsATG4B) (human) (UniProt Q9Y4P1); assay: SDS-PAGE (reductant-free sample buffer) and Western blot with anti-His; recombinant HsATG4B treated with 1 mM or 3 mM H2O2 followed by DTT, in TBSK buffer pH 8.0; both purified
[2] = target: bovine serum albumin (bovine) (UniProt P02769); assay: far-Western, overlay or dot blot; PsTRXo1 (1.5 µg), HsATG4B (2.3 µg) and BSA (1.5 µg) spotted on membranes, blocked in TBST (25 mM Tris-HCl pH 7.5, 1% BSA, 0.1% Tween-20), overlaid with 0.2 µg PsTRXo1 or 0.1 µg HsATG4B in TBST for 2 h at room temperature; detected with anti-PsTRXo1 or anti-CrATG4B; both purified

B1: recombinant human ATG4B, His-tagged (His-HsATG4B) (enzyme, UniProt Q9Y4P1 1-393, looked up)
chain: MDAATLTYDTLRFAEFEDFPETSEPVWILGRKYSIFTEKDEILSDVASRLWFTYRKNFPAIGGTGPTSDTGWGCMLRCGQMIFAQALVCRHLGRDWRWTQRKRQPDSYFSVLNAFIDRKDSYYSIHQIAQMGVGEGKSIGQWYGPNTVAQVLKKLAVFDTWSSLAVHIAMDNTVVMEEIRRLCRTSVPCAGATAFPADSDRHCNGFPAGAEVTNRPSPWRPLVLLIPLRLGLTDINEAYVETLKHCFMMPQSLGVIGGKPNSAHYFIGYVGEELIYLDPHTTQPAVEPTDGCFIPDESFHCQHPPCRMSIAELDPSIAVGFFCKTEDDFNDWCQQVKKLSLLGGALPMFELVELQPSHLACPDVLNLSLDSSDVERLERFFDSEDEDFEILSL
notes: human cysteine protease ATG4B, recombinant, bought; printed size with His tag 47 kDa; No catalogue number is printed; source: bought: Abcam
[1]
  binding: no binding (condition: with DTT after the H2O2 treatment)
[2]
  binding: no binding (tested: 0.1 µg of recombinant HsATG4B overlaid)
